Among the data in paper doi:10.1101/2021.08.27.457973 are binding values, retold here.

The experiment deals with T1, STK11IP-GFP (mouse) (UniProt Q3TAA7).
T1 sequence: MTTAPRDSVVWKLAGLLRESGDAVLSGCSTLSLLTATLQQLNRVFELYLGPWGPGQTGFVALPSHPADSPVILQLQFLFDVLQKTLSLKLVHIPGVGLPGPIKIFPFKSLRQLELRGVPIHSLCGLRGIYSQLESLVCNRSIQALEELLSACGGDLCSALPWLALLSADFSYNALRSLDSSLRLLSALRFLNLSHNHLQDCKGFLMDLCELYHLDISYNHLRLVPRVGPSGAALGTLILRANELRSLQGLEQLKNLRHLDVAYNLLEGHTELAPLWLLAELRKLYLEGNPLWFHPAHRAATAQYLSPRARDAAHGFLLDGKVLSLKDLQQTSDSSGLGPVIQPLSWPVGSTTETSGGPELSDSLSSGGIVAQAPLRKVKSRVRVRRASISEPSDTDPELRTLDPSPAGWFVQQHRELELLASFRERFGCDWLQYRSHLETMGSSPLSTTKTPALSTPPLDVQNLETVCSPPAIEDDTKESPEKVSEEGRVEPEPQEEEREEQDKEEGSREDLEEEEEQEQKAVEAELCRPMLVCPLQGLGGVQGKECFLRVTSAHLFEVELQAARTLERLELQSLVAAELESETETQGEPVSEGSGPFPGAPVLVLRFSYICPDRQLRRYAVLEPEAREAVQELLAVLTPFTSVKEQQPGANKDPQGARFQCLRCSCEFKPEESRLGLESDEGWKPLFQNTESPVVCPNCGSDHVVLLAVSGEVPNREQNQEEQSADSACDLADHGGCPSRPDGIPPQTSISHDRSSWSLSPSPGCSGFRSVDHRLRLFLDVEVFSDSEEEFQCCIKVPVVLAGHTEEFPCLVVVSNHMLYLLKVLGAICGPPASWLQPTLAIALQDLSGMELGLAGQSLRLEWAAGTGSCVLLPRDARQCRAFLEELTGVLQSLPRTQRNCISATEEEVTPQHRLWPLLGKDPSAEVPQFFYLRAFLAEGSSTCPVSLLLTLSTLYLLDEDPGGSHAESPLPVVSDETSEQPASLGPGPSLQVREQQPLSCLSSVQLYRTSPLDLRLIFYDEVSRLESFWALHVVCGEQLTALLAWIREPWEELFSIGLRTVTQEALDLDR
The experiment is described as follows: affinity purification with mass spectrometry.

Results are given in words; binding and its absence hold for the method and conditions named. In cells and extracts the contact can be indirect. Here binding means that the protein was enriched with, or labelled near, the bait; the list need not be complete. Where a sequence is shown, tags or fusion partners need not be part of it.

B1: TMEM192 (endogenous) (protein, UniProt Q8IY95 1-271)
chain: MAAGGRMEDGSLDITQSIEDDPLLDAQLLPHHSLQAHFRPRFHPLPTVIIVNLLWFIHLVFVVLAFLTGVLCSYPNPNEDKCPGNYTNPLKVQTVIILGKVILWILHLLLECYIQYHHSKIRNRGYNLIYRSTRHLKRLALMIQSSGNTVLLLILCMQHSFPEPGRLYLDLILAILALELICSLICLLIYTVKIRRFNKAKPEPDILEEEKIYAYPSNITSETGFRTISSLEEIVEKQGDTIEYLKRHNALLSKRLLALTSSDLGCQPSRT
Consider B1, for which the binding result is recorded as “binds”.
